Test results published in PubChem BioAssay AID485314 (National Center for Advancing Translational Sciences (NCATS), 2010).
The campaign covered roughly 340,000 compounds. About 4,500 (1.3%) were called active. Inconclusive results, whose numbers are uncertain, are shown with a selection of clear calls. Calls come from the whole dose curve; as a rule, active = well fitted inhibition curve with a large enough effect; inconclusive = small, poorly fitted or top-dose-only effect, or another doubt; inactive = no such curve, though single readings can be large or run the other way. A potency beside an inconclusive call is a rough fit, not a confirmed value.

What follows are molecules tested against DNA polymerase beta (Homo sapiens) (UniProt P06746) (assay: qHTS Assay for Inhibitors of DNA Polymerase Beta). Settings: Pol beta primer extension/strand displacement, fluorescence kinetic; activity change, negative = inhibition: at 114 µM (top of the series).
Method in brief: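 Kinetic readout of DNA synthesis with strand displacement by Pol beta. Compound and 10 nM enzyme sit 15 min at room temperature; 50 nM substrate starts the reaction, read immediately and at 10 min.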
% is set by controls: 0 for no effect and ±100 for the full control effect; potency is the fitted concentration of half-maximal effect.

Activity change, negative = inhibition, inconclusive:
COc1cc2ccccc2cc1C(=O)Nc1ccc2oc(-c3ccc(Cl)cc3)nc2c1 -65.9% [inhibitor], O=C(N/N=C/c1ccc(F)cc1)c1cc(-c2ccc3c(c2)OCO3)n[nH]1 -30.5% [inhibitor], O=C(O)CSc1ncnc2c1sc1nc(-c3ccccc3)c3c(c12)CCC3 -57.3% [inhibitor], O=C(O)c1ccc(N/N=C/c2ccnc3ccccc23)cc1 -40.1% [inhibitor]

Activity change, negative = inhibition, inactive:
O=C(NC(=S)Nc1ccc(S(=O)(=O)Nc2nccs2)cc1)c1ccc(F)c(F)c1 22.5%, COc1cc(/C=N/NC(=O)c2nc(C)cc(C)n2)ccc1O 7.7%, Cn1cc(C(c2ccccc2)c2ccc(Cl)s2)c2ccccc21 (stereo not drawn) 2.33%, CCOc1ccccc1CNC(=O)CCCN1C(=O)c2cccnc2Oc2ccc(Cl)cc21 8.45%, CN1CCCC(OC(=O)c2ccc(S(=O)(=O)N(C)C)cc2)C1 (stereo not drawn) 15.3%, COCCNC(=O)c1ccc(-c2nc(CN3CCc4ccccc43)c(C)o2)cc1 -19.1%, CCOC(=O)CSc1nnc(-c2ccccc2)o1 46.1%, c1ccc(-c2cn3c(n2)-c2ccccc2C3)cc1 -1.22%, COc1ccc(/C=C/C(=O)NCc2ccccn2)cc1 33.1%, COc1ccc(OC)c(NCc2cccn2-c2nnc(N3CCCCC3)s2)c1 2.72%, O=C(O)c1cc2ncc(-c3[nH]ncc3[N+](=O)[O-])cn2n1 -26.3%, O=C(O)c1cc2cccc(S(=O)(=O)N3CCOCC3)c2cc1O -0.332%, O=C(O)CCc1ccc(-c2ccccc2)n1CC(=O)O -13.3%, COc1ccc(S(=O)(=O)N2CCCOC2CNC(=O)C(=O)NCCc2ccco2)cc1OC (stereo not drawn) 23.9%, COc1ccccc1NC(=O)C(C)Sc1nnc2ccc3ccccc3n12 (stereo not drawn) -8.5%, Cc1cccc(N2CCN(C(=O)C3CCCN(S(=O)(=O)c4ccc5c(c4)oc(=O)n5C)C3)CC2)c1C (stereo not drawn) -2.71%

Potency, active:
O=C(CSc1nc2ccccc2n1CCc1ccccc1)c1ccc(O)c(O)c1 0.501 µM, O=C(N/N=C/c1ccncc1)c1ccc(NC(=O)c2cccc(Cl)c2)cc1 8.91 µM, COCCCNC(=S)N1CCCC(c2nc3cc(C)c(C)cc3[nH]2)C1 (stereo not drawn) 39.8 µM, COC(=O)c1ccc(CSc2nnc(NC(=O)C3CC(=O)N(c4ccc5c(c4)OCCO5)C3)s2)cc1 (stereo not drawn) 28.2 µM, CCOc1cc(/C=N/N=C(N)N)ccc1OCc1ccc(Cl)cc1 79.4 µM, CCN(c1ccccc1)S(=O)(=O)c1cc(C(=O)O)ccc1C 12.6 µM, Cc1ccccc1CSc1nnc(NC(=O)Cc2cccs2)s1 22.4 µM, O=c1oc2ccc(F)cc2c2c1C1O[C@](c3ccsc3)(Cc3c1ccc1ccccc31)O2 10 µM, CN(/C=C/C(=C\C=[N+](C)c1ccccc1)OCCCS(=O)(=O)[O-])c1ccccc1 50.1 µM, NS(=O)(=O)c1ccc(NC(=O)c2ccc(-c3ccccc3)cc2)cc1 14.1 µM, COc1ccc2c(COC(=O)CC3Sc4ccccc4NC3=O)cc(=O)oc2c1 (stereo not drawn) 35.5 µM, CCOc1cc(/C=C/c2cccc[n+]2C)ccc1OCC(=O)Nc1ccc(C)cc1 12.6 µM, O=C(CCCN1C(=O)c2ccccc2C1=O)Nc1sc2c(c1C(=O)NCc1ccco1)CCC2 20 µM, CS(=O)(=O)Nc1ccc(-c2ccc(/C=C3\SC(N)=NC3=O)o2)cc1 39.8 µM, O=C(O)c1cc(N/N=C/c2cccs2)ccc1Cl 22.4 µM

Potency, inconclusive:
COc1cc2c(cc1OC)-c1cc(Nc3ccc(C(=O)O)cc3)nc(=O)n1CC2 50.1 µM [inhibitor, partial curve], COc1ccc(/C=N/NC(=O)CSc2ccccn2)cc1OC 0.282 µM [inhibitor, full curve, poor fit], COc1ccc(NC(=O)CCCn2c(=O)c3sccc3n(Cc3ccc(C)cc3C)c2=O)cc1 79.4 µM [inhibitor, single point], CCc1nn2c(=O)cc(COc3cccc(NC(=O)c4ccco4)c3)nc2s1 39.8 µM [inhibitor, partial curve], CCc1cc2c(SCC(=O)N(C)C3CCS(=O)(=O)C3)ncnc2s1 (stereo not drawn) 89.1 µM [inhibitor, single point], CCOc1cc(CNCCO)cc(Br)c1OCc1ccc(Cl)cc1Cl 5.62 µM [inhibitor, full curve], CC(C)(C)C1CCc2onc(C(=O)N3CCOCC3)c2C1 (stereo not drawn) 100 µM [inhibitor, single point], Cn1c(C(=O)OC(C(=O)NC2CCCCC2)c2ccncc2)cc2sccc21 (stereo not drawn) 20 µM [inhibitor, partial curve], C=CCN1C(=O)CN=C1NCc1ccccc1 39.8 µM [inhibitor, single point], Cc1c(/C=N\NC(=O)c2cc3ccccc3o2)c2ccccc2n1C 0.501 µM [inhibitor, full curve, poor fit], COc1ccc(C(=O)N/N=C2\SCC(=O)N2Cc2ccc3c(c2)OCO3)c(OC)c1 22.4 µM [inhibitor, partial curve, poor fit], COc1ccc2nc(N3C(=O)/C(=C/c4ccccc4)NC3=S)sc2c1 50.1 µM [inhibitor, partial curve], Cc1c(C)n(Cc2ccccc2)c2ncnc(NCCN(C)C)c12 0.316 µM [inhibitor, full curve, poor fit], O=C(NCc1ccc2c(c1)OCO2)c1cc2c(s1)CSC2 25.1 µM [inhibitor, full curve], COc1cccc(CSc2nccn2C)c1 12.6 µM [inhibitor, partial curve, poor fit], Cc1cc2oc(=O)cc(CN3CCN(C/C=C/c4ccccc4)CC3)c2cc1O 0.794 µM [inhibitor, full curve], COc1cc2c(C(=O)O)c(C)n(CC(C)C)c2c2ccccc12 89.1 µM [inhibitor, single point], O=C(CCC(=O)c1cccs1)Nc1nnc(C2CC2)s1 50.1 µM [inhibitor, partial curve], Nc1nc(SCc2ccccc2)c2[nH]cnc2n1 0.631 µM [inhibitor, full curve], Cn1c(=O)c2c(-c3ccc(Cl)cc3)n(Cc3ccc(Cl)cc3)cc2n(C)c1=O 8.91 µM [inhibitor, partial curve, poor fit], COc1ccccc1OCCCSc1nc(-c2ccc(C(C)(C)C)cc2)nc2cc(=O)[nH]n12 28.2 µM [inhibitor, partial curve], CC1CC(C)(C)CC2(C1)NC(=O)N(CC(=O)NCCc1ccc3c(c1)OCCO3)C2=O (stereo not drawn) 7.94 µM [inhibitor, partial curve, poor fit], Brc1ccc(C2=NC(Cc3ccccc3)CO2)cc1 (stereo not drawn) 100 µM [inhibitor, single point], COc1ccc(/C=C/c2nnc(NC(=O)c3ccco3)s2)cc1 79.4 µM [inhibitor, single point], Cc1ccc(OCC(=O)NNC(=O)CSc2ncnc3sc(C)c(C)c23)cc1 3.55 µM [inhibitor, full curve], CN(C)c1ccc(O)c2c1CC1CC3[C@@H](N(C)C)C(=O)C(C(N)=O)=C(O)[C@]3(O)C(=O)C1=C2O (stereo partly drawn) 5.62 µM [inhibitor, full curve], CN(C(=O)c1ccccc1Cl)c1ccccc1 0.141 µM [inhibitor, full curve, poor fit], CC1CN(CCCOc2ccccc2-c2ccccc2)CC(C)O1 (stereo not drawn) 50.1 µM [inhibitor, partial curve, poor fit], CCOc1cc(/C=C2\SC(=S)N(C(C(=O)O)c3ccccc3)C2=O)ccc1O (stereo not drawn) 15.8 µM [inhibitor, full curve, poor fit], Nc1c(C(=O)NCCN2CCOCC2)c2nc3ccccc3nc2n1CCc1ccccc1F 50.1 µM [inhibitor, partial curve], Cc1nc2sc(C(c3ccc(Cl)cc3)N3CCN(CCO)CC3)c(O)n2n1 (stereo not drawn) 39.8 µM [inhibitor, single point], Cc1ccc(/C=N/NC(=O)CNC(=O)c2cccs2)cc1 0.891 µM [inhibitor, full curve, poor fit], O=C(NCc1ccco1)/C(=C\c1cccs1)NC(=O)c1ccsc1 39.8 µM [inhibitor, partial curve], O=C(c1ccccc1)N1CCC(CC2CC(c3cccc(Br)c3)=NO2)(C(=O)NCC2CCCCC2)CC1 (stereo not drawn) 4.47 µM [inhibitor, full curve, poor fit], CC(=O)NCCc1ccc(S(=O)(=O)NCc2ccc3c(c2)OCO3)cc1 0.1 µM [inhibitor, full curve, poor fit], COCCOC(=O)C1=C(C)NC(=O)NC1c1cn(-c2ccccc2)nc1-c1ccccc1 (stereo not drawn) 0.891 µM [inhibitor, single point], CCOC(=O)Oc1ccc2c(c1)C(C)=CC(C)(C)N2C(=O)OCC 0.501 µM [inhibitor, full curve, poor fit]

Potency, inactive:
Cc1cccc(NS(=O)(=O)c2nnc(NC(=O)c3cccc(C)c3)s2)c1
